Laboratory results: paper doi:10.1101/2023.02.01.526621 (bioRxiv, 2023)

Sequences of proteins named here, by UniProt entry; tags and fusion partners are left off. A change or cut given only in a name is not applied to a line headed by its entry.
UniProt O48946: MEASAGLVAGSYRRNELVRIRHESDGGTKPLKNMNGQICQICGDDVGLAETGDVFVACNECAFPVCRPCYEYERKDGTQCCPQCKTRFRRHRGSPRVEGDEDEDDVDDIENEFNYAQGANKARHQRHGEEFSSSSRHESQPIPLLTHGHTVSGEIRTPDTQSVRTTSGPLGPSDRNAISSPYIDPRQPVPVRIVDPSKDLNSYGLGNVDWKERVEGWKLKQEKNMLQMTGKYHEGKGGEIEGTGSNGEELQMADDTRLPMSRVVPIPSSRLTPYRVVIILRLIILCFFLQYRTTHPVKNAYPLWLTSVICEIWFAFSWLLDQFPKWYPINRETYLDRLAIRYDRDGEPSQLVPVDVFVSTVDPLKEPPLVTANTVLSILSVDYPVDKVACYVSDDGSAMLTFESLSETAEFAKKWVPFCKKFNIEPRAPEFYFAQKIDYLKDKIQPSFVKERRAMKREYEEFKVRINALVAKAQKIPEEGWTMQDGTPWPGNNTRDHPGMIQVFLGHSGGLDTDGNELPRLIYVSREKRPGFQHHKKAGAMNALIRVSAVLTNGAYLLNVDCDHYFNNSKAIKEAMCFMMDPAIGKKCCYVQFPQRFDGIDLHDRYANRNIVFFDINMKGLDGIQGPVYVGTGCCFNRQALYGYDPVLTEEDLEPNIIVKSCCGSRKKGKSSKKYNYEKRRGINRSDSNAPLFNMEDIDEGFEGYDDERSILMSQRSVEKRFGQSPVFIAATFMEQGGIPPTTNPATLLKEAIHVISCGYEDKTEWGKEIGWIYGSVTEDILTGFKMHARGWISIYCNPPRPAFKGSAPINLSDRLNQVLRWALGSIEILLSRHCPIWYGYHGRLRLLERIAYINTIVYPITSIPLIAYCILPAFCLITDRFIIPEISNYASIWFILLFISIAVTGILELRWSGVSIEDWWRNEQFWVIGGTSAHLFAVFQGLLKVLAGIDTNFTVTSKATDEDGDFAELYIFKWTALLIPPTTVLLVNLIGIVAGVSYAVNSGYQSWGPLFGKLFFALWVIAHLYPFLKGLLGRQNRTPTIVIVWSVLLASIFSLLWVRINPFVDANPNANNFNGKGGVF

T1: GST-CESA3CD (catalytic domain of cellulose synthase CESA3 fused to GST) (Arabidopsis thaliana) (UniProt Q941L0)
T1 sequence: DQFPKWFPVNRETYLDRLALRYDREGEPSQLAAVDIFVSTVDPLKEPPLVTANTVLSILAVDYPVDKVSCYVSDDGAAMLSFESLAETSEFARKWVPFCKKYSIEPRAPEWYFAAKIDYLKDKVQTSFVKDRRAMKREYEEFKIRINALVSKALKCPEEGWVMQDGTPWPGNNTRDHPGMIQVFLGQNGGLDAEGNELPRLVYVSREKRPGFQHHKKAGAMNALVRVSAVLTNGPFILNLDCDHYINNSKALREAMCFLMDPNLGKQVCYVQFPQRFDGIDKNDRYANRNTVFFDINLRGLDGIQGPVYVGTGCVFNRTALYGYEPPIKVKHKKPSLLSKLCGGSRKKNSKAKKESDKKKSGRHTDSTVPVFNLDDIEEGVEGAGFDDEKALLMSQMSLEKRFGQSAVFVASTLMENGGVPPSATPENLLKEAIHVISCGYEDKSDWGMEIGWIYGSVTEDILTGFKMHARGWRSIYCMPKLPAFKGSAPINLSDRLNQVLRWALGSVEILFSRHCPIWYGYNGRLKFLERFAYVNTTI


How the values were obtained:
[1] = target: T1, GST-CESA3CD (catalytic domain of cellulose synthase CESA3 fused to GST) (Arabidopsis thaliana); experiment: pull-down
[2] = target: GST-CESA1CD (catalytic domain of cellulose synthase CESA1 fused to GST) (Arabidopsis thaliana) (UniProt O48946); experiment: pull-down

| binding [1] | binding [2] | Molecule |
| --- | --- | --- |
| no binding | – | His-CPK32-N (N-terminal variable domain of CPK32) (Arabidopsis thaliana) (domain or fragment) |
| – | binds | His-tagged full-length CALCIUM-DEPENDENT PROTEIN KINASE32 (His-CPK32) (enzyme, Arabidopsis thaliana, UniProt Q6NLQ6 1-538, looked up) MGNCCGTAGSLAQNDNKPKKGRKKQNPFSIDYGLHHGGGDGGGRPLKLIVLNDPTGREIESKYTLGRELGRGEFGVTYLCTDKETDDVFACKSILKKKLRTAVDIEDVRREVEIMRHMPEHPNVVTLKETYEDEHAVHLVMELCEGGELFDRIVARGHYTERAAAAVTKTIMEVVQVCHKHGVMHRDLKPENFLFGNKKETAPLKAIDFGLSVFFKPGERFNEIVGSPYYMAPEVLKRNYGPEVDIWSAGVILYILLCGVPPFWAETEQGVAQAIIRSVLDFRRDPWPKVSENAKDLIRKMLDPDQKRRLTAQQVLDHPWLQNAKTAPNVSLGETVRARLKQFTVMNKLKKRALRVIAEHLSDEEASGIREGFQIMDTSQRGKINIDELKIGLQKLGHAIPQDDLQILMDAGDIDRDGYLDCDEFIAISVHLRKMGNDEHLKKAFAFFDQNNNGYIEIEELREALSDELGTSEEVVDAIIRDVDTDKDGRISYEEFVTMMKTGTDWRKASRQYSRERFNSISLKLMQDASLQVNGDTR |
| – | binds | His-CPK32-K (kinase domain of CPK32) (domain or fragment, UniProt Q6NLQ6 63-321) YTLGRELGRGEFGVTYLCTDKETDDVFACKSILKKKLRTAVDIEDVRREVEIMRHMPEHPNVVTLKETYEDEHAVHLVMELCEGGELFDRIVARGHYTERAAAAVTKTIMEVVQVCHKHGVMHRDLKPENFLFGNKKETAPLKAIDFGLSVFFKPGERFNEIVGSPYYMAPEVLKRNYGPEVDIWSAGVILYILLCGVPPFWAETEQGVAQAIIRSVLDFRRDPWPKVSENAKDLIRKMLDPDQKRRLTAQQVLDHPWL |

No constants are given. Whether binding was seen depends on the method and setting. For part of these data: Binding calls can cover weak binding; strength is not graded here. Where a sequence is shown, tags or fusion partners need not be part of it.
